According to PubChem BioAssay AID2685 (National Center for Advancing Translational Sciences (NCATS), 2010):
The other results are listed elsewhere or left out. The main result of the screen is listed elsewhere. These columns were measured beside it and carry no call. Compounds called inactive in the main read-out are mostly missing here. Potencies come from curve fits of mixed quality, noted in brackets.

Experiment: qHTS Assay for Lipid Storage Modulators in Drosophila S3 Cells;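 as to cell number change: cells counted by Cell Tracker Red CMTPX staining in the red channel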
Details: BODIPY lipid droplet fluorescence, 18-24 h; for cell number change: measured here: cell count max response, cells fed with added oleic acid
Method in brief: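 Drosophila S3 cells loaded with oleic acid (400 uM, as added) and compounds at several concentrations; lipid droplets imaged by 488-nm laser-scanning cytometry, 500–530 nm intensity and object ratio to cell channel. Percent activity normalized to 20 uM Triacsin C.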

[1] = measured here: lipid fluorescence (Fed channel) AC50, cells fed with added oleic acid
[2] = measured here: cell number channel AC50, cells fed with added oleic acid

Cc1nc(S(=O)(=O)Cc2ccc(Cl)cc2)nc2c1CCC2 gave a cell number change of -48.3%.
For C/C(=N/NC(=O)CNC(=O)Cc1ccc(Cl)cc1)c1ccco1, the cell number change was 22.3%.
Work on COCC(C)n1c(COc2ccccc2F)nnc1SCc1c(C)noc1C (stereo unspecified) yielded a cell number change of 16.8%.
With COc1ccc(CNS(=O)(=O)CCNC(=O)c2ccc3c(c2)OCO3)cc1 the cell number change was -17.4% and the AC50 [1] was 4.61 µM [falling, single point].
For CC(C)NC(=O)CCS(=O)(=O)c1cccc2nonc12, the cell number change was -97.7% and the AC50 [2] was 29.1 µM [falling, single point].
For Cc1[nH]n(-c2ccc([N+](=O)[O-])cc2)c(=O)c1C=NCCN1CCN(C(=O)c2ccc(Br)cc2)CC1, the cell number change was -8.84% and the AC50 [1] was 0.058 µM [falling, full curve, poor fit].
For Nc1nnc(SCC(=O)Nc2cccc(Cl)c2)s1, the cell number change was -17.2% and the AC50 [1] was 0.231 µM [rising, full curve, poor fit].
Work on C=CCn1c(SCC(=O)c2ccc(OC)cc2)nnc1C(C)NC(=O)c1cccs1 (stereo unspecified) yielded a cell number change of 2.42%.
In the case of COc1ccc(OCC(=O)N2CCN(c3nnc(-c4ccc(C)cc4)c4ccccc34)CC2)cc1, the cell number change is reported as -12.5% and the AC50 [1] is reported as 16.4 µM [falling, partial curve, poor fit].
In the case of CC(C)(C)c1nn(-c2ccccc2)c2[nH]c(=O)c(CNc3ccc4c(c3)OCCO4)cc12, the cell number change is reported as -50.8%, the AC50 [2] is reported as 1.3 µM [falling, partial curve] and the AC50 [1] is reported as 0.164 µM [rising, full curve, poor fit].
For COc1cccc(C(C)NC(=O)Nc2cc(Cl)ccc2OC)c1 (stereo unspecified), the cell number change was -0.769% and the AC50 [1] was 0.891 µM [rising, partial curve].
In the case of CC(=O)Nc1cccc(Oc2cnc3ccccc3n2)c1, the cell number change is reported as 16.3% and the AC50 [1] is reported as 29.1 µM [rising, single point].
In the case of Cc1nc2ccc(NC(=O)CSc3nnc(C)s3)cc2[nH]1, the cell number change is reported as 1.9%.
With O=C(c1cccc(S(=O)(=O)Nc2ccc(F)cc2)c1)N1CCCC1 the cell number change was -1.24%.
With CCn1nc(C)c(CN2CCC(n3nccc3NC(=O)c3ccccc3OC)CC2)c1C the cell number change was 19.8%.
With N#Cc1nc(-c2ccc(F)cc2)oc1NCc1ccco1 the cell number change was 6.82% and the AC50 [2] was 0.0731 µM [falling, full curve, poor fit].
For COc1ccc(-c2cc3ccccc3oc2=O)cc1NC(=O)c1cccnc1, the cell number change was 19.2%.
For Cc1cc(NC(=O)CCC(=O)N(CC(=O)NC2CCCC2)Cc2ccc(F)cc2)no1, the AC50 [1] was 0.651 µM [falling, single point].
For CN(C(=O)c1cccc(S(=O)(=O)N2CCOCC2)c1)c1c(N)n(Cc2ccccc2)c(=O)[nH]c1=O, the cell number change was 36.1%, the AC50 [2] was 16.4 µM [rising, single point] and the AC50 [1] was 13 µM [rising, partial curve, poor fit].
For COc1ccccc1-n1c2c(cc(C(=O)N3CCC(C)CC3)c1=O)C(=O)CC(C)(C)C2, the cell number change was -36.9%, the AC50 [2] was 5.8 µM [falling, partial curve, poor fit] and the AC50 [1] was 9.2 µM [falling, partial curve].
With COc1ccccc1C(=O)C1CCCN(C(=O)c2ccccc2C(C)=O)C1 (stereo unspecified) the cell number change was 9.04% and the AC50 [1] was 3.66 µM [falling, single point].
For Cc1cc(=O)n(C)c(=O)n1CCCCCCOc1cccc([N+](=O)[O-])c1, the cell number change was -11.4% and the AC50 [1] was 32.6 µM [falling, single point].
With COc1ccccc1N/C(=N/c1nc(C)cc(C)n1)NC(C)=O the cell number change was -6.27% and the AC50 [1] was 0.82 µM [rising, full curve, poor fit].
In the case of Cn1c(=O)c(C(=O)CN2CC(=O)Nc3ccccc32)c(N)n(Cc2ccccc2)c1=O, the cell number change is reported as 57.6%, the AC50 [2] is reported as 20.6 µM [rising, single point] and the AC50 [1] is reported as 25.9 µM [rising, single point].
For S=c1nc(-c2ccccc2Cl)n(Cc2cccnc2)c2c1CCCC2, the cell number change was 5.59%, the AC50 [2] was 6.51 µM [rising, single point] and the AC50 [1] was 6.51 µM [rising, single point].
In the case of COc1cccc(C2=CC(c3ccccc3)n3nnnc3N2)c1 (stereo unspecified), the AC50 [1] is reported as 32.6 µM [rising, single point].
In the case of O=C(CCCN=C1NS(=O)(=O)c2ccccc21)OCC(=O)c1ccccc1, the cell number change is reported as 13.5%.
For Cc1ccc(NC(=O)C(C)OC(=O)Cn2[nH]c(=O)c3ccccc3c2=O)cc1 (stereo unspecified), the cell number change was 2.71% and the AC50 [1] was 9.2 µM [rising, partial curve].
In the case of CCc1ccc2c(c1)C1(C(=O)N2)N2CCCC2C(C(=O)c2ccc3ccccc3c2)C12C(=O)Nc1ccccc12 (stereo unspecified), the cell number change is reported as -39.2%, the AC50 [2] is reported as 29.1 µM [falling, single point] and the AC50 [1] is reported as 18.4 µM [falling, single point].
With O=C(CN1CCc2cc3c(cc2C1)OCCCO3)Nc1cccc(Br)c1 the cell number change was -29.8% and the AC50 [1] was 29.1 µM [falling, single point].
In the case of Cc1cc(C)n(-c2nc(-c3cccc(Cl)c3)cs2)n1, the cell number change is reported as 85.9%, the AC50 [2] is reported as 25.9 µM [rising, partial curve, poor fit] and the AC50 [1] is reported as 25.9 µM [rising, partial curve, poor fit].
For O=C(Nc1ncc([N+](=O)[O-])s1)C1COc2ccccc2O1 (stereo unspecified), the cell number change was -60.5%, the AC50 [2] was 29.1 µM [falling, single point] and the AC50 [1] was 23.1 µM [falling, partial curve, poor fit].
Compound Cc1cccc(-c2ocnc2C(=O)N2CCN(C(=O)c3cccs3)CC2)c1 has a cell number change of 35.5%.
In the case of COc1cc(OC)cc(-c2cc3ccc(OC)cc3cn2)c1, the cell number change is reported as 7.57% and the AC50 [1] is reported as 1.16 µM [rising, partial curve].
For CSCCC(NC(=O)COc1ccccc1)C(=O)Nc1ccc(C)cc1 (stereo unspecified), the cell number change was 3.77% and the AC50 [1] was 32.6 µM [falling, single point].
For O=C(C1=C(O)C(=O)N(CCCN2CCOCC2)C1c1ccccn1)c1cc2ccccc2o1 (stereo unspecified), the cell number change was -0.476% and the AC50 [1] was 0.092 µM [falling, full curve, poor fit].
In the case of C=CCn1c(SCC(=O)c2c(C)[nH]c3ccccc23)nnc1-c1ccncc1, the AC50 [2] is reported as 7.31 µM [falling, single point].
With COc1ccc(Nc2cc(C)nc3ccc(OC)cc23)cc1 the cell number change was -23.1% and the AC50 [1] was 14.6 µM [falling, partial curve, poor fit].
